Data published in publication PMC6023120.
These are yes or no findings as the source states them, for the method shown. A result given as binding can be weak or reduced; the word gives no strength.

Target: Schistosoma mansoni methyl-CpG-binding domain protein (SmMBD2/3) (Schistosoma mansoni) (UniProt C4Q592)
Assay: two-hybrid; Matchmaker library screen: SmMBD2/3 Gal4-BD bait (pGBKT7, Y187) against adult S. mansoni cDNA library (pGADT7-Rec, AH109); SD/-Trp/-Leu/-His/-Ade + X-α-gal, X-β-gal filter assay; in-frame hits retested by co-transformation into Y2HGold with Aureobasidin A (60 ng/ml)

binding: binds
Substance: S. mansoni chromobox protein SmCBX (Δ1–160), C-terminal in-frame truncation of Smp_179650 (from UniProt G4VDS7) (domain or fragment)
